# Laboratory results: paper PMC11403517
# Protein sequences, listed by entry. Tags and fused reporters are not part of them.
# UniProt Q06330: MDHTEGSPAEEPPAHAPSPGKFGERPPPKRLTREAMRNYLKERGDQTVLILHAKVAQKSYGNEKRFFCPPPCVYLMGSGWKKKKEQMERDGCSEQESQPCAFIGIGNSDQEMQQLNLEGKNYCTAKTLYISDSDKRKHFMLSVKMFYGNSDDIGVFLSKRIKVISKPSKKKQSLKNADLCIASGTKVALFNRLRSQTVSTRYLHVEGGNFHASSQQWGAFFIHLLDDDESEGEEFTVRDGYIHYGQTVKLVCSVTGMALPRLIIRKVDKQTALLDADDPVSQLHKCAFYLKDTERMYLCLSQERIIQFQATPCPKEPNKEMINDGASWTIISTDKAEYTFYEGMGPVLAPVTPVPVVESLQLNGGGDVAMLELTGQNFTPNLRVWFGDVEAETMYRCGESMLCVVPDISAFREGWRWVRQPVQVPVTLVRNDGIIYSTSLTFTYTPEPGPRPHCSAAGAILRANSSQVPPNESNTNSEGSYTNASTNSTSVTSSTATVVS
# No constants are given. Whether binding was seen depends on the method and setting. In cells and extracts the contact can be indirect. These calls come from enrichment with a bait or labelling near it, and not all partners need be listed.
# Key:
# [1] = target: TurboID-EBNA3A (biotin ligase domain fused to the N-terminus of EBNA3A) (Epstein-Barr virus) (UniProt P12977); assay: proximity labelling; HEK293T cells expressing HA-tagged TurboID-EBNA3A or TurboID-vector control, biotin for the indicated time points; NeutrAvidin precipitation, immunoblotting
# [2] = target: EBNA3A-TurboID (biotin ligase domain fused to the C-terminus of EBNA3A) (Epstein-Barr virus) (UniProt P12977); assay: proximity labelling; HEK293T cells expressing TurboID-E3A or E3A-TurboID, biotin 120 min; biotinylated proteins isolated from lysates by NeutrAvidin precipitation, LC/MS/MS; untransfected cells as control
# [3] = target: TurboID-EBNA3A (biotin ligase domain fused to the N-terminus of EBNA3A) (Epstein-Barr virus) (UniProt P12977); assay: as above
Substance,binding [1],binding [2],binding [3]
CREB binding protein (CBP) (endogenous) (from UniProt Q92793 1-2442),binds,binds,binds
c-terminal-binding protein 2 (CtBP2) (from UniProt P56545 1-445),,binds,binds
histone acetyltransferase P300 (endogenous) (from UniProt Q09472 1-2414),binds,binds,binds
recombination signal binding protein for immunoglobulin kappa J region (RBP-Jκ) (from UniProt Q06330 1-500),,binds,binds
